PubChem BioAssay AID1259297 – Sanger Institute | 2017
Purpose: 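Kinases whose loss kills cells on their own or with targeted drugs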 (primary screen). System: human RCM1 colorectal cancer cell line. Knock-down reagent: siRNA pool against human genes. Conditions: separate arms: DMSO vehicle, or one anchor drug at a mild dose: BYL719 1 µM, cetuximab 5 µg/ml, trametinib 10 nM. Measurement: 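Viability per well relative to a non-targeting pool, mean of replicates; robust z-score for knock-down alone; synergy score with BYL719, cetuximab or trametinib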. Reading the numbers: viability z-score, knock-down alone: higher = more viable cells than non-targeting controls; viability, knock-down alone (DMSO): higher = more viable cells. Units: viability, knock-down alone (DMSO) in fraction of control. Active means: 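Called essential if knock-down without drug gives a viability robust z-score under -3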. Meaning of the calls: active = essential when knocked down alone; inactive = no clear loss of viability alone.
In all, the deposit lists 794 reagents; shown is a part drawn at random. Over the whole deposit, 13 (1.6%) were called active. 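Calls reflect knock-down without drug only; drug synergy is judged separately, with scores above 0.15 counted as synergy.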 A number with no mark means an inactive call. Viability is capped at 1. Not all columns of the deposit are shown. No sequences are given here. Not stated in the record: the amount of reagent, the time to read-out.

Knock-down of PHKA1 (phosphorylase kinase regulatory subunit alpha 1) gave: viability z-score, knock-down alone 0.808; viability, knock-down alone (DMSO) = 0.991.
Depletion of STK10 (serine/threonine kinase 10) gave: viability z-score, knock-down alone -1.7; viability, knock-down alone (DMSO) = 0.758.
Silencing of PIK3CD gave: viability z-score, knock-down alone 0.9; viability, knock-down alone (DMSO) = 1.
After knock-down of CAMK2A (calcium/calmodulin dependent protein kinase II alpha), the screen gave viability z-score, knock-down alone -1.12; viability, knock-down alone (DMSO) = 0.812.
For AGK (acylglycerol kinase), the entry reads viability z-score, knock-down alone 0.879; viability, knock-down alone (DMSO) = 0.998.
After knock-down of MAPK3 (mitogen-activated protein kinase 3), the record shows viability z-score, knock-down alone 0.774; viability, knock-down alone (DMSO) = 0.988.
Against FYN (FYN proto-oncogene, Src family tyrosine kinase) the deposit lists viability z-score, knock-down alone -0.481; viability, knock-down alone (DMSO) = 0.872.
Against FN3K (fructosamine 3 kinase), the entry reads viability z-score, knock-down alone -0.445; viability, knock-down alone (DMSO) = 0.875.
Against IPPK (inositol-pentakisphosphate 2-kinase), the entry reads viability z-score, knock-down alone 0.9; viability, knock-down alone (DMSO) = 1.
CDK11A (cyclin dependent kinase 11A) scored viability z-score, knock-down alone -1.45; viability, knock-down alone (DMSO) = 0.782.
Knock-down of CHD4 (chromodomain helicase DNA binding protein 4) resulted in: viability z-score, knock-down alone -3.47 (active); viability, knock-down alone (DMSO) = 0.594.
AURKB (aurora kinase B) gave viability z-score, knock-down alone -0.367; viability, knock-down alone (DMSO) = 0.882.
After knock-down of TPK1 (thiamin pyrophosphokinase 1), the screen gave viability z-score, knock-down alone -0.659; viability, knock-down alone (DMSO) = 0.855.

Just “viability z-score, knock-down alone”, for 3 of the entries above:
IPPK (inositol-pentakisphosphate 2-kinase) = 0.9
CDK11A (cyclin dependent kinase 11A) = -1.45
CHD4 (chromodomain helicase DNA binding protein 4) = -3.47 (active)

Next entries:
Knock-down of SRPK3 (SRSF protein kinase 3) gave: viability z-score, knock-down alone 0.9; viability, knock-down alone (DMSO) = 1.
BRD4 (bromodomain containing 4) showed viability z-score, knock-down alone 0.835; viability, knock-down alone (DMSO) = 0.994.
Silencing of MELK (maternal embryonic leucine zipper kinase) came out at: viability z-score, knock-down alone 0.9; viability, knock-down alone (DMSO) = 1.
Against CERK (ceramide kinase), the entry reads viability z-score, knock-down alone 0.846; viability, knock-down alone (DMSO) = 0.995.
Depletion of PAK6 (p21 (RAC1) activated kinase 6) resulted in: viability z-score, knock-down alone 0.9; viability, knock-down alone (DMSO) = 1.
Silencing of AURKA (aurora kinase A) came out at: viability z-score, knock-down alone -2.66; viability, knock-down alone (DMSO) = 0.669.
After knock-down of PIK3C2G the results were viability z-score, knock-down alone -1.69; viability, knock-down alone (DMSO) = 0.759.
With knock-down of CDKN2D (cyclin dependent kinase inhibitor 2D), the screen gave viability z-score, knock-down alone 0.104; viability, knock-down alone (DMSO) = 0.926.
TPD52L3 (TPD52 like 3) showed viability z-score, knock-down alone 0.115; viability, knock-down alone (DMSO) = 0.927.
Knock-down of POLR2B (RNA polymerase II subunit B) resulted in: viability z-score, knock-down alone -3.57 (active); viability, knock-down alone (DMSO) = 0.585.
For IP6K1 (inositol hexakisphosphate kinase 1), the entry reads viability z-score, knock-down alone 0.9; viability, knock-down alone (DMSO) = 1.
RBKS (ribokinase) scored viability z-score, knock-down alone 0.9; viability, knock-down alone (DMSO) = 1.
Depletion of LMTK1 (lemur tail kinase 1) resulted in: viability z-score, knock-down alone -1.38; viability, knock-down alone (DMSO) = 0.788.
SPEG (striated muscle enriched protein kinase) scored viability z-score, knock-down alone 0.9; viability, knock-down alone (DMSO) = 1.
EPHA5 (EPH receptor A5) gave viability z-score, knock-down alone 0.9; viability, knock-down alone (DMSO) = 1.
Against CERT1 (ceramide transporter 1), the entry reads viability z-score, knock-down alone -1.45; viability, knock-down alone (DMSO) = 0.782.
After knock-down of CDKN1A (cyclin dependent kinase inhibitor 1A) the results were viability z-score, knock-down alone 0.9; viability, knock-down alone (DMSO) = 1.
Silencing of PRKD3 (protein kinase D3) resulted in: viability z-score, knock-down alone -0.13; viability, knock-down alone (DMSO) = 0.904.
Depletion of STK36 (serine/threonine kinase 36) came out at: viability z-score, knock-down alone 0.233; viability, knock-down alone (DMSO) = 0.938.
Silencing of ERN1 (endoplasmic reticulum to nucleus signaling 1) resulted in: viability z-score, knock-down alone -2.02; viability, knock-down alone (DMSO) = 0.729.
PAK3 (p21 (RAC1) activated kinase 3) scored viability z-score, knock-down alone 0.45; viability, knock-down alone (DMSO) = 0.958.
Depletion of ROR2 (ROR family WNT receptor 2) gave: viability z-score, knock-down alone 0.9; viability, knock-down alone (DMSO) = 1.
With knock-down of CDK18 (cyclin dependent kinase 18), the screen gave viability z-score, knock-down alone -0.27; viability, knock-down alone (DMSO) = 0.891.
